# In PubChem BioAssay AID1439 (NMMLSC, 2008):
# Chains of the proteins cited; added tags and fusions are not shown.
# UniProt P09471, whole entry, looked up: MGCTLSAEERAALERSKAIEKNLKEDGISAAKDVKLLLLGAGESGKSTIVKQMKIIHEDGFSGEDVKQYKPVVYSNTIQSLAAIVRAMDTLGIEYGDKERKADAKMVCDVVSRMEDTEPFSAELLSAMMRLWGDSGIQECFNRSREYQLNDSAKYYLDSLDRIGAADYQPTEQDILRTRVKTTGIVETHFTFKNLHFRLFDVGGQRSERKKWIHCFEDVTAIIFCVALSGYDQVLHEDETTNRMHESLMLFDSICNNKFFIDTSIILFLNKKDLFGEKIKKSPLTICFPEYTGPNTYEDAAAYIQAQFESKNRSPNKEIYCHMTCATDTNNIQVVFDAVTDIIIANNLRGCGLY
# The whole screen tested about 220,000 compounds, of which about 770 (0.35%) were called active. The shares of active, inactive and inconclusive entries below differ from those in the screen. No stated cut-off is given here; in the data, active means binding response below about 49% or above about 150%; inconclusive means no clear call, values can overlap the other calls; inactive means in between.
# Biological target: Guanine nucleotide-binding protein G(o) subunit alpha (Homo sapiens) (UniProt P09471)
# Assay: RGS7-Galphao binding modulators, primary screen, biochemical, multiplexed bead flow cytometry (AID 1439);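 further: fluorescent Galphao held in activated GDP-AlF4 state binding bead-coupled RGS7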
# Conditions: at 10 µM, actives lie on both sides
row,Structure (SMILES),binding response (% of control)
1,CC(=O)c1c(O)cc(O)c(C(C)=O)c1O,inconclusive: 160%
2,NC(=O)COC(=O)/C=C/c1ccc2ccccc2n1,inconclusive: 105%
3,Cc1nnn(-c2nonc2N)c1C(=O)NNC(=O)c1ccc(Cl)c(Cl)c1,inconclusive: 99.6%
4,CS(=O)(=O)c1ccc(Cl)c(NC(=O)COC(=O)CNC(=O)c2ccccc2)c1,inconclusive: 119%
5,CC(C)(C)c1ccc(OCC(=O)Nc2ccc3c4c(cccc24)C(=O)NC3=O)cc1,inactive: 102%
6,CSc1sc(-c2ccnc(=S)[nH]2)c(-c2ccccc2)c1C#N,inconclusive: -266%
7,COC(=O)c1cccc(C23CC4(C2)[C@H](CN(Cc2ccc(C(F)(F)F)cc2)[C@@H]4c2ccccc2)C3c2ccc(C(F)(F)F)cc2)c1 (stereo not given in full),inconclusive: 112%
8,CCOC(=O)C(=NC1CCCCC1)NNc1cccc(C(F)(F)F)c1,inactive: 100%
9,Cc1ccc(C)c(NC(=O)CCC(=O)NNC(=S)Nc2ccccc2)c1,inconclusive: 121%
10,CN(C)C1C(=O)c2ccccc2C1=O,inactive: 93%
11,CCOc1ccc(CC2CC(=O)NC2=O)cc1 (stereo not given),inactive: 100%
12,Cc1cc(Oc2ccc(=O)n(C)n2)nc(SCc2ccccc2)n1,inactive: 99.8%
13,CCC1CCCCN1CCNC(=O)CCS(=O)(=O)c1ccc(Br)cc1 (stereo not given),inactive: 101%
14,Nc1cc2ccncc2c2ccccc12,inconclusive: 122%
15,CSc1ncc(Cl)c(C(=O)Nc2ccccc2Br)n1,inconclusive: 104%
16,Cc1cc(=O)[nH]c(SCC(=O)N2CCC(Cc3ccccc3)CC2)n1,inconclusive: 90.2%
17,CCCCCC1C/C(=N\O)C=C(C)C1C(=O)OC (stereo not given),inconclusive: 98.6%
18,CCn1cc(C(=O)OCC(=O)N2C(C)CCCC2C)c(=O)c2ccc(C)nc21 (stereo not given),inconclusive: 87.9%
19,Nc1cc(N)nc(SCC(=O)Nc2ccccc2N2CCOCC2)n1,inconclusive: 129%
20,CCOC(=O)CSc1nc(C)c2cccc(C)c2n1,inconclusive: 112%

row,Structure (SMILES),binding response (% of control)
1,OC(CN1CCOCC1)c1ccc(F)cc1 (stereo not given),inconclusive: 87.3%
2,COc1ccc(CCNC(=O)C/C(C)=N/NC(=O)Cc2cccc3ccccc23)cc1OC,inconclusive: 109%
3,CN1C(C(=O)NCC2CC2)CC2Cn3c(nc4cc5ccccc5cc43)C21 (stereo not given),inconclusive: 110%
4,O=C(Cc1cccc2ccccc12)NNC(=O)Nc1ccc(Cl)cc1,inconclusive: 83.9%
5,CCOC(=O)c1cc2c(=O)n3cccc(C)c3nc2n(CC(C)C)c1=NC(=O)c1ccco1,inconclusive: 88.1%
6,COc1ccc(CCNC(=O)COC(=O)Cn2cnc3ccccc32)cc1OC,inconclusive: 105%
7,O=C(NNC(=S)NC(=O)c1cccnc1)c1ccc(F)cc1,inconclusive: 128%
8,O=C1CCCC2=C1C(c1ccncc1)n1c(nc3ccccc31)N2 (stereo not given),inconclusive: 84.1%
9,C/C(=N\NC(=O)c1cccc(S(=O)(=O)N2CCOCC2)c1)c1ccco1,inconclusive: 85.5%
10,COc1ccc(/C=C/C(=O)Nc2cccc(S(=O)(=O)NC3=NCCCCC3)c2)cc1,inconclusive: 91.4%
11,CCN(CC(=O)NC(C)(C)C)C(=O)c1ccc2c(c1)S(=O)(=O)c1ccccc1C2=O,inactive: 104%
12,CCCCc1c(O)nc(SCC(=O)c2ccccc2)n(-c2ccccc2OC)c1=O,inconclusive: 84.2%
13,COc1cccc(CN2CCNC(=O)C2CC(=O)NCCn2ccc3ccccc32)c1OC (stereo not given),inactive: 99.7%
14,CC(=O)OCC1(C)CN(c2ccccc2)N(C(C)=O)C1=O (stereo not given),inconclusive: 111%
15,O=C1N=C(N2CCc3ccccc3C2)S/C1=C\c1ccc(O)cc1,inconclusive: 122%
16,CC1CCN(CCCNC(=O)c2cc3c(Cl)nc4ccccc4c3s2)CC1,inactive: 110%
17,O=C(CC(c1ccccc1)c1ccccc1)Nc1ccncc1,inconclusive: 83.6%
18,CC(O)c1nc2ccccc2n1CCCOc1ccccc1 (stereo not given),inconclusive: 103%
19,Cc1cc(=O)[nH]c(SCC(=O)c2ccc3c(c2)NC(=O)CO3)n1,inconclusive: 130%
20,COc1ccc2[nH]cc(CCNS(=O)(=O)c3ccccc3)c2c1,inactive: 102%

row,Structure (SMILES),binding response (% of control)
1,COc1ccccc1NC(=O)N1CCN(CCc2ccccc2)CC1,inconclusive: 179%
2,O=C(O)C(Cc1ccccc1)N1C(=O)CCC1=O (stereo not given),inconclusive: 86.5%
3,Cc1ccc(C(=O)OCC(=O)Nc2ccc3[nH]c(=O)[nH]c3c2)cc1[N+](=O)[O-],inconclusive: 89.4%
4,Cc1cc(-n2cc(Br)c(=O)[nH]c2=O)nc(-c2ccccc2)n1,inconclusive: 103%
5,OCCCCc1nccc2c1[nH]c1ccccc12,inconclusive: 118%
6,COc1ccc(CC(=O)n2[nH]c(=O)ccc2=O)cc1OC,inconclusive: 35.6%
7,O=C(C[n+]1cc(-c2ccc(Cl)c(Cl)c2)n2c1CCC2)c1cccs1,inconclusive: 92.2%
8,Cc1ccc(C(=O)NCC(=O)OCC(=O)Nc2ccccc2C#N)s1,inconclusive: 90.5%
9,COc1ccccc1OCC#CCNC1CCCCC1C (stereo not given),inconclusive: 109%
10,CNc1ccc(Oc2nc([N+](=O)[O-])nn2C)cc1,inactive: 99.5%
11,COc1ccc(CN2CCOCCOCCN(Cc3ccc(OC)cc3)CCOCCOCC2)cc1,inconclusive: 191%
12,CC(C)(C)c1ccccc1NC(=O)Cn1cnc2cc([N+](=O)[O-])ccc2c1=O,inconclusive: 76%
13,O=C(CCc1ccccc1)c1c(O)cc(O)cc1O,inconclusive: 141%
14,C/C(=N\Nc1ccccn1)c1ccc(C#N)cc1,inconclusive: 103%
15,O=C(CSc1nnc(NC(=O)c2ccccc2F)s1)Nc1ccccc1F,inconclusive: 70.8%
16,NNC(=O)COc1cccc(Oc2ccccc2)c1,inactive: 98.4%
17,CC(C)NC(=S)N/N=C/c1cccnc1,inconclusive: 89.8%
18,CCCCC(=O)Nc1ccccc1C(C)C,inactive: 99.4%
19,c1ccc(C(c2ccccc2)c2noc(CN3CCC(c4ccncc4)CC3)n2)cc1,inactive: 105%
20,CCC1=C(OC(=O)N(CC)CC)N2C(=O)OC(=NCC(=O)OC)[C@]2(Cc2ccccc2)[C@H]2C1=CC[C@H]1C(=O)N(c3ccccc3)C(=O)[C@H]12,inconclusive: 105%

# Given as tab-separated lines: entries from further up
row	Structure (SMILES)	binding response (% of control)
3	Cc1ccc(C(=O)OCC(=O)Nc2ccc3[nH]c(=O)[nH]c3c2)cc1[N+](=O)[O-]	inconclusive: 89.4%
4	Cc1cc(-n2cc(Br)c(=O)[nH]c2=O)nc(-c2ccccc2)n1	inconclusive: 103%
5	OCCCCc1nccc2c1[nH]c1ccccc12	inconclusive: 118%
6	COc1ccc(CC(=O)n2[nH]c(=O)ccc2=O)cc1OC	inconclusive: 35.6%
